T1: biotin-tagged XPF (mouse (endogenous knock-in in MEFs)) (UniProt Q9QZD4)
T1 sequence (chain, biotin on the 15 aa tag (by the BirA ligase in vivo)): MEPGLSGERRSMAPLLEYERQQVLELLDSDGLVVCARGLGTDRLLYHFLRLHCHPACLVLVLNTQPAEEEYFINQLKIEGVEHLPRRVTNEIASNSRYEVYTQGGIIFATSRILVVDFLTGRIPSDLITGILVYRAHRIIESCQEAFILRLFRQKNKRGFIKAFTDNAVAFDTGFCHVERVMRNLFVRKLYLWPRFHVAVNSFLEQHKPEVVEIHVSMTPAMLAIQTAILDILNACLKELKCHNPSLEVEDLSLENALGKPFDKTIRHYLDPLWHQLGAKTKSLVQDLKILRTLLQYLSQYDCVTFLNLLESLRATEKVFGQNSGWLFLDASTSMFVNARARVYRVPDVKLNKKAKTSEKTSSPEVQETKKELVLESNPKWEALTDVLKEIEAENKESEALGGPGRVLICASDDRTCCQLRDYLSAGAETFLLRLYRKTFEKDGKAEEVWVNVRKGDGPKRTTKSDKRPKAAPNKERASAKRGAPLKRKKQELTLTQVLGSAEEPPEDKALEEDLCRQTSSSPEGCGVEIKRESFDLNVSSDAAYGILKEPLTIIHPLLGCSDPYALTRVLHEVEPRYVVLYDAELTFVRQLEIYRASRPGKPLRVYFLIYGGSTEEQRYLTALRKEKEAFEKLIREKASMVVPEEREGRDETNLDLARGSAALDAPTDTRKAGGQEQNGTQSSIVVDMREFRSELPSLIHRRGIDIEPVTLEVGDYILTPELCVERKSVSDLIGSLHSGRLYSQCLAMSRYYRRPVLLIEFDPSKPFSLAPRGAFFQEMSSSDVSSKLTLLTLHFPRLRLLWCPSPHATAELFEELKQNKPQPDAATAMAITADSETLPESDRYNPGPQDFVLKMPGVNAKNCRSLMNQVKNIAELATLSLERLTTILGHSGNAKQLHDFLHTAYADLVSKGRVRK

B1: HIST1h1a (protein, UniProt P43275 1-213)
chain: MSETAPVAQAASTATEKPAAAKKTKKPAKAAAPRKKPAGPSVSELIVQAVSSSKERSGVSLAALKKSLAAAGYDVEKNNSRIKLGLKSLVNKGTLVQTKGTGAAGSFKLNKKAESKAITTKVSVKAKASGAAKKPKKTAGAAAKKTVKTPKKPKKPAVSKKTSKSPKKPKVVKAKKVAKSPAKAKAVKPKASKAKVTKPKTPAKPKKAAPKKK
B2: SMC1A (protein, UniProt Q9CU62 1-1233)
chain: MGFLKLIEIENFKSYKGRQIIGPFQRFTAIIGPNGSGKSNLMDAISFVLGEKTSNLRVKTLRDLIHGAPVGKPAANRAFVSMVYSEEGAEDRTFARVIVGGSSEYKINNKVVQLHEYSEELEKLGILIKARNFLVFQGAVESIAMKNPKERTALFEEISRSGELAQEYDKRKKEMVKAEEDTQFNYHRKKNIAAERKEAKQEKEEADRYQRLKDEVVRAQVQLQLFKLYHNEVEIEKLNKELASKNKEIEKDKKRMDKVEDELKEKKKELGKMMREQQQIEKEIKEKDSELNQKRPQYIKAKENTSHKIKKLEAAKKSLQNAQKHYKKRKGDMDELEKEMLSVEKARQEFEERMEEESQSQGRDLTLEENQVKKYHRLKEEASKRAATLAQELEKFNRDQKADQDRLDLEERKKVETEAKIKQKLREIEENQKRIEKLEEYITTSKQSLEEQKKLEGELTEEVEMAKRRIDEINKELNQVMEQLGDARIDRQESSRQQRKAEIMESIKRLYPGSVYGRLIDLCQPTQKKYQIAVTKVLGKNMDAIIVDSEKTGRDCIQYIKEQRGEPETFLPLDYLEVKPTDEKLRELKGAKLVIDVIRYEPPHIKKALQYACGNALVCDNVEDARRIAFGGHQRHKTVALDGTLFQKSGVISGGASDLKAKARRWDEKAVDKLKEKKERLTEELKEQMKAKRKEAELRQVQSQAHGLQMRLKYSQSDLEQTKTRHLALNLQEKSKLESELANFGPRINDIKRIIQSREREMKDLKEKMNQVEDEVFEEFCREIGVRNIREFEEEKVKRQNEIAKKRLEFENQKTRLGIQLDFEKNQLKEDQDKVHMWEQTVKKDENEIEKLKKEEQRHMKIIDETMAQLQDLKNQHLAKKSEVNDKNHEMEEIRKKLGGANKEMTHLQKEVTAIETKLEQKRSDRHNLLQACKMQDIKLPLSKGTMDDISQEEGSSQGEESVSGSQRTSSIYAREALIEIDYGDLCEDLKDAQAEEEIKQEMNTLQQKLNEQQSVLQRIAAPNMKAMEKLESVRDKFQETSDEFEAARKRAKKAKQAFEQIKKERFDRFNACFESVATNIDEIYKALSRNSSAQAFLGPENPEEPYLDGINYNCVAPGKRFRPMDNLSGGEKTVAALALLFAIHSYKPAPFFVLDEIDAALDNTNIGKVANYIKEQSTCNFQAIVISLKEEFYTKAESLIGVYPEQGDCVISKVLTFDLTKYPDANPNPNEQ
B3: NUP133 (protein, UniProt Q8R0G9 1-1155)
chain: MFPSVSSPRTPGPGTRRGPLVGIGPTSTPRASRRGLSLGSAVNSPVLFSPAGRRSSVSSRGTPTRIFPHHSISESVNYDVRVFGSSLPVKIMEALTMAEADEQLSVHVDEGGWACLVCTEKLLIWKIAVSPVTKLSVCKELQLPPSDFHGSADLVALSYAATSGEVHSVQAVSVMVATKEGSIRYWPSLAREDTYSDTCVDLGGEKMCRFLTAVQGGSFILSSVGSQLVRLIPESSGKIHQHVLPQGQGMLSGIGRRVSSLFGILSPTSDLMLASVLWDRGGSSFYTLTSSNISKWELDDSSEKQVHSWDVHRTLKESITDAVWGSESNYEAIKEGVNIQYLDLKQNCDGLLILAAAWHLGDSPCLVYYSVITVEDNGNQMSDAVTVEVTQYNPPFQSEDLIACRLMVPNFSSQMTYLYMENAVFVCSTGTGKFSLPQEKIVFDTQGDGILGAGSCAGVPILFSRNSGLVSVTPRENVSLLAEDLEESLTSSVGGRGSESMVFETTTKNETVAHEDKTKLLKAAFLQYCRKDLGRAQIMADELFSSHTDLDSDPELDKAVTQISVDLIDDYPASDPRWAESVPQEAPGLSNTSLIILHQLEDKMKAHCLLVDFLHQVGLFRRLSSYPIRGTPMSTRLLLCEHAEKLSAAITLKNHHSRLPDLVNSAILLALNKRECEVPNSLTPADVFFREVSQVDTICECLLEHEEQVLREVALVSQEWAEVAIDVNTVLKDMLQAATHYRLNKSSMYSQEEVLGKEPEYVPWTATSGPSGIRTAVMRQHGIILKMVYPQADSKLRNVVMEQLVALIDCFLDSYVSQLKSLEKSSDQERYSSLEVEYLQKRSELLSPLLTLGQYPWAASLAEKYCDFDILVQMCEQTDNQARLQRYMTQFADQNFSDFLFRWYLEKGKRGKLLSQPISQHGQLANFLQAHEHLSWLHEINSQELEKAHTTLLGLANMETRYFAKKKTLLGLSKLAALASDISEDRLQEKIEAMAEQERFLLHQETLPEQLLTERQLSLSAMPVLTAPQLISLYICDENRRANEYDFKKALDLLEYIDEEEDVSIDDLKLEILCRALQRDDWSGSDGKDDPIEVSKDSVFVKILQKLIKDGIQLSEYLPEVTDLLRAEQLGSLKSNSYFEFVLKANYEYYVQGQM
B4: RBM39 (protein, UniProt Q8VH51 1-530)
chain: MADDIDIEAMLEAPYKKDENKLNSANGHEERSKKRKKSKSRSRSHERKRSKSKERKRSRDRERKKSKSRERKRSRSKERRRSRSRSRDRRFRGRYRSPYSGPKFNSAIRGKIGLPHSIKLSRRRSRSKSPFRKDKSPVREPIDNLTPEERDARTVFCMQLAARIRPRDLEEFFSTVGKVRDVRMISDRNSRRSKGIAYVEFVDVSSVPLAIGLTGQRVLGVPIIVQASQAEKNRAAAMANNLQKGSAGPMRLYVGSLHFNITEDMLRGIFEPFGRIESIQLMMDSETGRSKGYGFITFSDSECAKKALEQLNGFELAGRPMKVGHVTERTDASSASSFLDSDELERTGIDLGTTGRLQLMARLAEGTGLQIPPAAQQALQMSGSLAFGAVAEFSFVIDLQTRLSQQTEASALAAAASVQPLATQCFQLSNMFNPQTEEEVGWDTEIKDDVIEECNKHGGVIHIYVDKNSAQGNVYVKCPSIAAAIAAVNALHGRWFAGKMITAAYVPLPTYHNLFPDSMTATQLLVPSRR
B5: CCCTC-binding factor (protein, UniProt Q61164 1-736)
chain: MEGEAVEAIVEESETFIKGKERKTYQRRREGGQEEDACHLPQNQTDGGEVVQDVNSSVQMVMMEQLDPTLLQMKTEVMEGTVAPEAEAAVDDTQIITLQVVNMEEQPINIGELQLVQVPVPVTVPVATTSVEELQGAYENEVSKEGLAESEPMICHTLPLPEGFQVVKVGANGEVETLEQGELPPQEDSSWQKDPDYQPPAKKTKKTKKSKLRYTEEGKDVDVSVYDFEEEQQEGLLSEVNAEKVVGNMKPPKPTKIKKKGVKKTFQCELCSYTCPRRSNLDRHMKSHTDERPHKCHLCGRAFRTVTLLRNHLNTHTGTRPHKCPDCDMAFVTSGELVRHRRYKHTHEKPFKCSMCDYASVEVSKLKRHIRSHTGERPFQCSLCSYASRDTYKLKRHMRTHSGEKPYECYICHARFTQSGTMKMHILQKHTENVAKFHCPHCDTVIARKSDLGVHLRKQHSYIEQGKKCRYCDAVFHERYALIQHQKSHKNEKRFKCDQCDYACRQERHMIMHKRTHTGEKPYACSHCDKTFRQKQLLDMHFKRYHDPNFVPAAFVCSKCGKTFTRRNTMARHADNCAGPDGVEGENGGETKKSKRGRKRKMRSKKEDSSDSEENAEPDLDDNEEEEEPAVEIEPEPEPQPQPPPPPQPVAPAPPPAKKRRGRPPGRTNQPKQNQPTAIIQVEDQNTGAIENIIVEVKKEPDAEPAEGEEEEAQAATTDAPNGDLTPEMILSMMDR
B6: NUP107 (protein, UniProt Q8BH74 1-926)
chain: MDRSGFGGMSSPVIRDAEVTRTARKHSAHKRVLIQANQEDNFGTATPRSQIIPRTPSSFRQPFVTPSSRSLLRHPDISYILGTEGRSPRHTQSSGYLGNLSMVTNLDDSNWAAAFSSQRLGLYTNTEHHSMTEDVNLSTVMLREDDPGEAASMSMFSDFLHSFLKHSSTTVFDLVEEYENICGSQVNILSKIVSRATPGLQKFSKTASMLWLLQQEMVTWRLLASLYRDRIQSSLEEENMFAIAGINASEKMVVETLFQRDSLVRQSQLVVDWLESIAKDEIGEFSDNIEFYAKSVYWENTLHSLKQRQLLSHMGSTRPLVTELDPDAPIRQKLPLDDLDREDEVRLLKYLFTLIRAGMTEEAQRLCKRCGQAWRAATLEGWKLYHDPNVNGGTELEPVEGNPYRRIWKISCWRMAEDELFNKYERAIYAALSGNLKQLLPVCDTWEDTVWAYFRVMVDSLVEQEIRTSVMTQDDSEELPREYMEANWTLEKVFEELQATDKKRVLEENQEHYHIVQKFLILGDVDGLMDEFSKWLSKSGSSLPGHLLRFMTHLILFLRTLGLQTKEEVSIEVLKTYIQLLISEKHTSLIAFYTCHLPQDLAVAQYALFLEGVTEFEQRHQCLELAKEADLDVATITKTVVENICKKDNGEFSHHDLAPSLDTGTTEEDRLKIDVIDWLVFDPAQRAEALRQGNAIMRKFLALKKHEAAKEVFVKIPQDSIAEIYNQWEEQGMESPLPAEDDNAIREHLCIRAYLEAHETFNEWFKHMNSAPQKPTLLSQATFTEKVAYEHREKKYEMDHNIWKGHLDALTADVKEKMYNVLLFVDGGWMVDVREDAEDDPERTHQMVLLRKLCLPMLCFLLHTILHSTGQYQECLQLADMVSSERHKLYLVFSKEELRKLLQKLRESSLMLLDQGLDPLGYEIQS

No constants are given. Whether binding was seen depends on the method and setting. Binding seen in cells or lysates may run through a third protein. Here binding means that the protein was enriched with, or labelled near, the bait; the list need not be complete. Tags and fused reporters may be left off the sequences shown.

The experiment addresses T1, biotin-tagged XPF (mouse (endogenous knock-in in MEFs)). The experiment in a line: affinity purification with mass spectrometry.
Take B1: the binding entry is “binds”.

B2: the binding result was “binds”. In the case of B3, the binding entry is “binds”. The value for B4 was “binds”. In the case of B5, the binding result is “binds”. For B6, the binding result is listed as “binds”.
